Results are given in words; binding and its absence hold for the method and conditions named. In cells and extracts the contact can be indirect. Some binding calls cover weakened binding; strength is not graded here.
What was measured:
Assay in all cases: co-IP
[1] = target: nucleoprotein of A/H1N1/WSN virus in infected cells (NP/RNP) (influenza A virus A/WSN/1933 (H1N1)) (UniProt P15682)
[2] = target: full length PKCα (PKCα-FL) (UniProt P17252)
[3] = target: MEK2-FLAG (human (cDNA from A549 cells)) (UniProt P36507)

By UniProt entry, the sequences of proteins in these tests, tags left out. Where a name states a change or a piece, a line headed by the entry shows the natural chain unless it says otherwise.
UniProt P15682: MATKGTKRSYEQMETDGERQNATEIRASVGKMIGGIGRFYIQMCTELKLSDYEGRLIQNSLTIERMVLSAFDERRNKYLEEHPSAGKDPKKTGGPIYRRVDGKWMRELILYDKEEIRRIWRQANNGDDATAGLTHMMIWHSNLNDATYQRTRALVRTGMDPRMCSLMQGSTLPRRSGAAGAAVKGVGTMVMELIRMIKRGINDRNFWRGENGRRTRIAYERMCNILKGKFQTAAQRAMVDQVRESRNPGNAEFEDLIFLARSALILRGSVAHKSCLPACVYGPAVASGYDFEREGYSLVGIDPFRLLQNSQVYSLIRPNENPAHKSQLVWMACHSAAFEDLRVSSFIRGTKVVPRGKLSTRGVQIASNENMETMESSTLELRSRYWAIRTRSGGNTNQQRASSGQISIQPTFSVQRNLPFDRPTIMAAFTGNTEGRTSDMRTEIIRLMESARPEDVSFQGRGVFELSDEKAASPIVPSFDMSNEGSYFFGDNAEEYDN

| Substance | binding [1] | binding [2] | binding [3] |
| --- | --- | --- | --- |
| endogenous PKCα (from UniProt P17252 1-672) (enzyme) | binds |  |  |
| influenza A/H1N1/WSN nucleoprotein, V5-tagged (NP-V5) (from UniProt P15682 8-498) |  | binds | no binding |

Source: doi:10.1101/2025.03.06.641832 (bioRxiv, 2025)
